These are yes or no findings as the source states them, for the method shown. In cells and extracts the contact can be indirect. Here binding means that the protein was enriched with, or labelled near, the bait; the list need not be complete.
B1: ECH1 (enzyme, UniProt Q13011 34-328)
chain: TGSSAQEEASGVALGEAPDHSYESLRVTSAQKHVLHVQLNRPNKRNAMNKVFWREMVECFNKISRDADCRAVVISGAGKMFTAGIDLMDMASDILQPKGDDVARISWYLRDIITRYQETFNVIERCPKPVIAAVHGGCIGGGVDLVTACDIRYCAQDAFFQVKEVDVGLAADVGTLQRLPKVIGNQSLVNELAFTARKMMADEALGSGLVSRVFPDKEVMLDAALALAAEISSKSPVAVQSTKVNLLYSRDHSVAESLNYVASWNMSMLQTQDLVKSVQATTENKELKTVTFSKL
B2: PPA1 (enzyme, UniProt Q15181 1-289)
chain: MSGFSTEERAAPFSLEYRVFLKNEKGQYISPFHDIPIYADKDVFHMVVEVPRWSNAKMEIATKDPLNPIKQDVKKGKLRYVANLFPYKGYIWNYGAIPQTWEDPGHNDKHTGCCGDNDPIDVCEIGSKVCARGEIIGVKVLGILAMIDEGETDWKVIAINVDDPDAANYNDINDVKRLKPGYLEATVDWFRRYKVPDGKPENEFAFNAEFKDKDFAIDIIKSTHDHWKALVTKKTNGKGISCMNTTLSESPFKCDPDAARAIVDALPPPCESACTVPTDVDKWFHHQKN
B3: USP48 (protein, UniProt Q86UV5 1-1035)
chain: MAPRLQLEKAAWRWAETVRPEEVSQEHIETAYRIWLEPCIRGVCRRNCKGNPNCLVGIGEHIWLGEIDENSFHNIDDPNCERRKKNSFVGLTNLGATCYVNTFLQVWFLNLELRQALYLCPSTCSDYMLGDGIQEEKDYEPQTICEHLQYLFALLQNSNRRYIDPSGFVKALGLDTGQQQDAQEFSKLFMSLLEDTLSKQKNPDVRNIVQQQFCGEYAYVTVCNQCGRESKLLSKFYELELNIQGHKQLTDCISEFLKEEKLEGDNRYFCENCQSKQNATRKIRLLSLPCTLNLQLMRFVFDRQTGHKKKLNTYIGFSEILDMEPYVEHKGGSYVYELSAVLIHRGVSAYSGHYIAHVKDPQSGEWYKFNDEDIEKMEGKKLQLGIEEDLAEPSKSQTRKPKCGKGTHCSRNAYMLVYRLQTQEKPNTTVQVPAFLQELVDRDNSKFEEWCIEMAEMRKQSVDKGKAKHEEVKELYQRLPAGAEPYEFVSLEWLQKWLDESTPTKPIDNHACLCSHDKLHPDKISIMKRISEYAADIFYSRYGGGPRLTVKALCKECVVERCRILRLKNQLNEDYKTVNNLLKAAVKGSDGFWVGKSSLRSWRQLALEQLDEQDGDAEQSNGKMNGSTLNKDESKEERKEEEELNFNEDILCPHGELCISENERRLVSKEAWSKLQQYFPKAPEFPSYKECCSQCKILEREGEENEALHKMIANEQKTSLPNLFQDKNRPCLSNWPEDTDVLYIVSQFFVEEWRKFVRKPTRCSPVSSVGNSALLCPHGGLMFTFASMTKEDSKLIALIWPSEWQMIQKLFVVDHVIKITRIEVGDVNPSETQYISEPKLCPECREGLLCQQQRDLREYTQATIYVHKVVDNKKVMKDSAPELNVSSSETEEDKEEAKPDGEKDPDFNQSNGGTKRQKISHQNYIAYQKQVIRRSMRHRKVRGEKALLVSANQTLKELKIQIMHAFSVAPFDQNLSIDGKILSDDCATLGTLGVIPESVILLKADEPIADYAAMDDVMQVCMPEEGFKGTGLLGH
B4: TALDO1 (enzyme, UniProt P37837 1-337)
chain: MSSSPVKRQRMESALDQLKQFTTVVADTGDFHAIDEYKPQDATTNPSLILAAAQMPAYQELVEEAIAYGRKLGGSQEDQIKNAIDKLFVLFGAEILKKIPGRVSTEVDARLSFDKDAMVARARRLIELYKEAGISKDRILIKLSSTWEGIQAGKELEEQHGIHCNMTLLFSFAQAVACAEAGVTLISPFVGRILDWHVANTDKKSYEPLEDPGVKSVTKIYNYYKKFSYKTIVMGASFRNTGEIKALAGCDFLTISPKLLGELLQDNAKLVPVLSAKAAQASDLEKIHLDEKSFRWLHNEDQMAVEKLSDGIRKFAADAVKLERMLTERMFNAENGK
B5: GOT2 (enzyme, UniProt P00505 30-430)
chain: SSWWTHVEMGPPDPILGVTEAFKRDTNSKKMNLGVGAYRDDNGKPYVLPSVRKAEAQIAAKNLDKEYLPIGGLAEFCKASAELALGENSEVLKSGRFVTVQTISGTGALRIGASFLQRFFKFSRDVFLPKPTWGNHTPIFRDAGMQLQGYRYYDPKTCGFDFTGAVEDISKIPEQSVLLLHACAHNPTGVDPRPEQWKEIATVVKKRNLFAFFDMAYQGFASGDGDKDAWAVRHFIEQGINVCLCQSYAKNMGLYGERVGAFTMVCKDADEAKRVESQLKILIRPMYSNPPLNGARIAAAILNTPDLRKQWLQEVKVMADRIIGMRTQLVSNLKKEGSTHNWQHITDQIGMFCFTGLKPEQVERLIKEFSIYMTKDGRISVAGVTSSNVGYLAHAIHQVTK
B6: PLCG2 (enzyme, UniProt P16885 1-1265)
chain: MSTTVNVDSLAEYEKSQIKRALELGTVMTVFSFRKSTPERRTVQVIMETRQVAWSKTADKIEGFLDIMEIKEIRPGKNSKDFERAKAVRQKEDCCFTILYGTQFVLSTLSLAADSKEDAVNWLSGLKILHQEAMNASTPTIIESWLRKQIYSVDQTRRNSISLRELKTILPLINFKVSSAKFLKDKFVEIGAHKDELSFEQFHLFYKKLMFEQQKSILDEFKKDSSVFILGNTDRPDASAVYLHDFQRFLIHEQQEHWAQDLNKVRERMTKFIDDTMRETAEPFLFVDEFLTYLFSRENSIWDEKYDAVDMQDMNNPLSHYWISSSHNTYLTGDQLRSESSPEAYIRCLRMGCRCIELDCWDGPDGKPVIYHGWTRTTKIKFDDVVQAIKDHAFVTSSFPVILSIEEHCSVEQQRHMAKAFKEVFGDLLLTKPTEASADQLPSPSQLREKIIIKHKKLGPRGDVDVNMEDKKDEHKQQGELYMWDSIDQKWTRHYCAIADAKLSFSDDIEQTMEEEVPQDIPPTELHFGEKWFHKKVEKRTSAEKLLQEYCMETGGKDGTFLVRESETFPNDYTLSFWRSGRVQHCRIRSTMEGGTLKYYLTDNLTFSSIYALIQHYRETHLRCAEFELRLTDPVPNPNPHESKPWYYDSLSRGEAEDMLMRIPRDGAFLIRKREGSDSYAITFRARGKVKHCRINRDGRHFVLGTSAYFESLVELVSYYEKHSLYRKMRLRYPVTPELLERYNMERDINSLYDVSRMYVDPSEINPSMPQRTVKALYDYKAKRSDELSFCRGALIHNVSKEPGGWWKGDYGTRIQQYFPSNYVEDISTADFEELEKQIIEDNPLGSLCRGILDLNTYNVVKAPQGKNQKSFVFILEPKQQGDPPVEFATDRVEELFEWFQSIREITWKIDTKENNMKYWEKNQSIAIELSDLVVYCKPTSKTKDNLENPDFREIRSFVETKADSIIRQKPVDLLKYNQKGLTRVYPKGQRVDSSNYDPFRLWLCGSQMVALNFQTADKYMQMNHALFSLNGRTGYVLQPESMRTEKYDPMPPESQRKILMTLTVKVLGARHLPKLGRSIACPFVEVEICGAEYDNNKFKTTVVNDNGLSPIWAPTQEKVTFEIYDPNLAFLRFVVYEEDMFSDPNFLAHATYPIKAVKSGFRSVPLKNGYSEDIELASLLVFCEMRPVLESEEELYSSCRQLRRRQEELNNQLFLYDTHQNLRNANRDALVKEFSVNENQLQLYQEKCNKRLREKRVSNSKFYS
B7: ARHGD1B (protein, UniProt P52566 1-201)
chain: MTEKAPEPHVEEDDDDELDSKLNYKPPPQKSLKELQEMDKDDESLIKYKKTLLGDGPVVTDPKAPNVVVTRLTLVCESAPGPITMDLTGDLEALKKETIVLKEGSEYRVKIHFKVNRDIVSGLKYVQHTYRTGVKVDKATFMVGSYGPRPEEYEFLTPVEEAPKGMLARGTYHNKSFFTDDDKQDHLSWEWNLSIKKEWTE
B8: ACO2 (enzyme, UniProt Q99798 28-780)
chain: QRAKVAMSHFEPNEYIHYDLLEKNINIVRKRLNRPLTLSEKIVYGHLDDPASQEIERGKSYLRLRPDRVAMQDATAQMAMLQFISSGLSKVAVPSTIHCDHLIEAQVGGEKDLRRAKDINQEVYNFLATAGAKYGVGFWKPGSGIIHQIILENYAYPGVLLIGTDSHTPNGGGLGGICIGVGGADAVDVMAGIPWELKCPKVIGVKLTGSLSGWSSPKDVILKVAGILTVKGGTGAIVEYHGPGVDSISCTGMATICNMGAEIGATTSVFPYNHRMKKYLSKTGREDIANLADEFKDHLVPDPGCHYDQLIEINLSELKPHINGPFTPDLAHPVAEVGKVAEKEGWPLDIRVGLIGSCTNSSYEDMGRSAAVAKQALAHGLKCKSQFTITPGSEQIRATIERDGYAQILRDLGGIVLANACGPCIGQWDRKDIKKGEKNTIVTSYNRNFTGRNDANPETHAFVTSPEIVTALAIAGTLKFNPETDYLTGTDGKKFRLEAPDADELPKGEFDPGQDTYQHPPKDSSGQHVDVSPTSQRLQLLEPFDKWDGKDLEDLQILIKVKGKCTTDHISAAGPWLKFRGHLDNISNNLLIGAINIENGKANSVRNAVTQEFGPVPDTARYYKKHGIRWVVIGDENYGEGSSREHAALEPRHLGGRAIITKSFARIHETNLKKQGLLPLTFADPADYNKIHPVDKLTIQGLKDFTPGKPLKCIIKHPNGTQETILLNHTFNETQIEWFRAGSALNRMKELQQ
B9: PRDX6 (enzyme, UniProt P30041 1-224)
chain: MPGGLLLGDVAPNFEANTTVGRIRFHDFLGDSWGILFSHPRDFTPVCTTELGRAAKLAPEFAKRNVKLIALSIDSVEDHLAWSKDINAYNCEEPTEKLPFPIIDDRNRELAILLGMLDPAEKDEKGMPVTARVVFVFGPDKKLKLSILYPATTGRNFDEILRVVISLQLTAEKRVATPVDWKDGDSVMVLPTIPEEEAKKLFPKGVFTKELPSGKKYLRYTPQP

By UniProt entry, the sequences of proteins in these tests, tags left out.
UniProt Q9BYV9: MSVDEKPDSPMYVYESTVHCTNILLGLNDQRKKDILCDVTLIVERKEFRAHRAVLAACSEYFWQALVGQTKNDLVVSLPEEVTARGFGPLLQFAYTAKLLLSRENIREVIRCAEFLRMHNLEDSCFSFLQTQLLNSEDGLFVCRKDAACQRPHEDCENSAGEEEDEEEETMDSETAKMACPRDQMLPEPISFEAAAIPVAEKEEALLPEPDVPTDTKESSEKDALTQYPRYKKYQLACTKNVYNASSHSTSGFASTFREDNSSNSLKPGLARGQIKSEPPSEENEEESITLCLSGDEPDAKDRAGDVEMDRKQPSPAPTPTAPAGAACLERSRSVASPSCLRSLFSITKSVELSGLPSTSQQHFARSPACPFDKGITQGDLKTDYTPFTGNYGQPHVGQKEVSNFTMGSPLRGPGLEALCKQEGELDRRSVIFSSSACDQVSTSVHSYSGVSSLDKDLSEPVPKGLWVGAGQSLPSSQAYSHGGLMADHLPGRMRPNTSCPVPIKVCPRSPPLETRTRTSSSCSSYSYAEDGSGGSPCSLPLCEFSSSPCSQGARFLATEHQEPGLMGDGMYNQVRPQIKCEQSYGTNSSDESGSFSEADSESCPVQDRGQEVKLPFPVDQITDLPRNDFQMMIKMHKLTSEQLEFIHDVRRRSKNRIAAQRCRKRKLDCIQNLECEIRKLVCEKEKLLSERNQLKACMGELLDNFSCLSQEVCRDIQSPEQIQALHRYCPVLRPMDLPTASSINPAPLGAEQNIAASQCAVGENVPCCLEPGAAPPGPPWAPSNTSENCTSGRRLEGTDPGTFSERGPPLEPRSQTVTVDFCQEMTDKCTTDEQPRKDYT

Biological target: BACH2 (BTB and CNC homology 1, basic leucine zipper transcription factor 2) (human (endogenous in MEC-1)) (UniProt Q9BYV9)
Assay: affinity purification with mass spectrometry; reciprocal co-immunoprecipitation with anti-BACH2 or anti-BCL6 from MEC-1 CLL cells, followed by Orbitrap mass spectrometry

Row | binding | Binder
1 | binds | B1
2 | binds | B2
3 | binds | B3
4 | binds | B4
5 | binds | B5
6 | binds | B6
7 | binds | B7
8 | binds | B8
9 | binds | B9

From PMC8750551
